In assay [1] the target is APR^GLP1 hexapeptide EFIAWL (aggregation-prone region of glucagon-like peptide 1) (human). Kind of assay: condition: only pH shifted from acidic to a neutral (physiological) value; far-UV CD + other: FTIR; matured amyloid samples (acidic pH, FTIR samples 24 h at pH 4.2, 37 °C) reset to neutral pH (7.2); reversibility measurement; both purified.
The target is the same in assay [2]. Kind of assay: far-UV CD; 0.15–0.20 mM peptide in distilled water, physiological pH and above (above pH 5), stirred 500–600 rpm at 37 °C, measured at 25 °C for up to weeks; both purified.
Assay [3] deals with APR^GLP2 hexapeptide DFINWL (aggregation-prone region of glucagon-like peptide 2) (human). Put plainly: condition: only pH shifted from acidic to a neutral (physiological) value; far-UV CD + other: FTIR; matured amyloid samples (acidic pH, FTIR samples 24 h at pH 4.2, 37 °C) reset to neutral pH (7.2); reversibility measurement; both purified.
The target is the same in assay [4]. Put plainly: far-UV CD; 0.15–0.20 mM peptide in distilled water, physiological pH and above (above pH 5), stirred 500–600 rpm at 37 °C, measured at 25 °C for up to weeks; both purified.
The target of assay [5] is APR^Tc5b hexapeptide LYIQWL (synthetic exendin-like APR of the de novo designed Tc5b and E19). Kind of assay: far-UV CD; pH scan of APR^Tc5b, pH below 2 and above 11; fibrils also brought to extreme pH; both purified.
Assay [6] deals with Ac-EFIAWL (N-terminally acetylated APR^GLP1) (human). Put plainly: far-UV CD; 0.15–0.20 mM peptide in distilled water, physiological pH and above (above pH 5), stirred 500–600 rpm at 37 °C, measured at 25 °C for up to weeks; both purified.

The record followed here is paper PMC10394066, “Polymorphic amyloid nanostructures of hormone peptides involved in glucose homeostasis display reversible amyloid formation” (Nature Communications, 2023).

These are yes or no findings as the source states them, for the method shown. For part of these data: Sequences can lack the tags named with a protein.

B1: APR^GLP1 hexapeptide EFIAWL (aggregation-prone region of glucagon-like peptide 1) (peptide)
peptide: EFIAWL
notes: aggregation-prone hexapeptide segment of human glucagon-like peptide 1 (GLP-1); source: synthetic peptide (flow solid-phase synthesis, Fmoc/tBu; RP-HPLC purified)
As for B1, the binding result in assay [1] was “no binding”; in assay [2], “no binding (condition: above pH = 5)”.

B2: APR^GLP2 hexapeptide DFINWL (aggregation-prone region of glucagon-like peptide 2) (peptide)
peptide: DFINWL
notes: aggregation-prone hexapeptide segment of human glucagon-like peptide 2 (GLP-2); free termini (no terminal protection); also called DFINWL (GLP-2); source: synthetic peptide (flow solid-phase synthesis, Fmoc/tBu; RP-HPLC purified)
Turning to B2, the binding entry in assay [3] is recorded as “no binding”; in assay [4], “no binding (condition: above pH = 5)”.

B3: APR^Tc5b hexapeptide LYIQWL (synthetic exendin-like APR of the de novo designed Tc5b and E19) (peptide)
peptide: LYIQWL
notes: hexapeptide segment of the de novo designed Trp-cage exendin derivatives Tc5b and E19; non-natural, no acidic side chain; also called LYIQWL (Tc5b, E19); source: synthetic peptide (flow solid-phase synthesis, Fmoc/tBu; RP-HPLC purified)
In the case of B3, the binding result in assay [5] was “no binding (condition: pH below 2 and above 11)”.

Regarding EFIAWL (N-terminal acetyl) [Ac-EFIAWL (N-terminally acetylated APR^GLP1)], in assay [6], the binding entry is recorded as “no binding (condition: above pH = 5)”.
